Our source for the binding values is patent US20050215770A1.

These are yes or no findings as the source states them, for the method shown. Some binding calls cover weakened binding; strength is not graded here. Sequences can lack the tags named with a protein.

For this experiment, the target named is T1, Recombinant soluble human Flag-tagged NogoR (amino acids 1 to 309 of SEQ ID NO:2) (human) (UniProt Q9BZR6).
T1 sequence (chain, biotinylated with Sulfo-NHS-LC-Biotin): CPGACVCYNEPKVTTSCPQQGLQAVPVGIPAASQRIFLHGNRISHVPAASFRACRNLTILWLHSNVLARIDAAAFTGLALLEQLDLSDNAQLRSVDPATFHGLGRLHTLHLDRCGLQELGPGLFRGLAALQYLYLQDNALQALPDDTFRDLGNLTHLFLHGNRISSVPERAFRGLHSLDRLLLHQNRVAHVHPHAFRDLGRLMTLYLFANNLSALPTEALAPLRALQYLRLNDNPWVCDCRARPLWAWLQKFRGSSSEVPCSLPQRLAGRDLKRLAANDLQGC
Kind of experiment: ECL matrix titration of biotin-rHuNOGOSR-Flag against Ori-TAG Rat MAG-Fc on streptavidin beads.

B1: Recombinant Rat MAG-Fc (R&D Systems) (Fc fusion, UniProt P07722 20-516, looked up, not shown: a dimerising Fc or GST)
chain: GHWGAWMPSSISAFEGTCVSIPCRFDFPDELRPAVVHGVWYFNSPYPKNYPPVVFKSRTQVVHESFQGRSRLLGDLGLRNCTLLLSTLSPELGGKYYFRGDLGGYNQYTFSEHSVLDIINTPNIVVPPEVVAGTEVEVSCMVPDNCPELRPELSWLGHEGLGEPTVLGRLREDEGTWVQVSLLHFVPTREANGHRLGCQAAFPNTTLQFEGYASLDVKYPPVIVEMNSSVEAIEGSHVSLLCGADSNPPPLLTWMRDGMVLREAVAESLYLDLEEVTPAEDGIYACLAENAYGQDNRTVELSVMYAPWKPTVNGTVVAVEGETVSILCSTQSNPDPILTIFKEKQILATVIYESQLQLELPAVTPEDDGEYWCVAENQYGQRATAFNLSVEFAPIILLESHCAAARDTVQCLCVVKSNPEPSVAFELPSRNVTVNETEREFVYSERSGLLLTSILTLRGQAQAPPRVICTSRNLYGTQSLELPFQGAHRLMWAKIGP
modifications: labelled with Ori-TAG (Origen-TAG-NHS)
B1: the binding result is listed as “binds”.
